According to PubChem BioAssay (NCATS):
The shares of active, inactive and inconclusive entries below differ from those in the screen. Potencies beside an inconclusive call are fits to weak or partial responses and may not hold up. Active and inactive are the calls of the source. The call rests on the fitted dose curve; in most records, active means well fitted cell-killing curve with a large enough effect; inconclusive means small, poorly fitted or top-dose-only effect, or effect the other way; inactive means no such curve, though single readings can be large or run the other way.

Columns and labels:
[1] = Quantitative High-Throughput drug screen in 47 multiple myeloma cell lines against the NCATS MIPE library collection: L363_DSMZ cell viability assay (AID 1918984); settings: L363 myeloma viability, CellTiter-Glo ATP luminescence, 48 h; viability (% of control): at 45.8 µM (top of the series); further: nearly all actives have a fitted effect of over 40% in size
How it was run: (§1)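 ATP-based luminescence (CellTiter-Glo, 5 min RT incubation) quantified surviving cells following two days' treatment with MIPE 4.0 agents at 37 °C, 5% CO2.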

[2] = Quantitative High-Throughput drug screen in 47 multiple myeloma cell lines against the NCATS MIPE library collection: KMS34_JCRB cell viability assay (AID 1918985); settings: KMS34 myeloma viability, CellTiter-Glo ATP luminescence, 48 h; viability, percent of control: at 45.8 µM (top of the series); further: nearly all actives have a fitted effect of over 40% in size;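 on viability, percent of control: 100% = DMSO-only wells and 0% = media-only wells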
How it was run: as §1

[3] = Quantitative High-Throughput drug screen in 47 multiple myeloma cell lines against the NCATS MIPE library collection: OCIMY7_PLB cell viability assay (AID 1918987); settings: OCI-MY7 myeloma viability, CellTiter-Glo ATP, 48 h; viability (% of DMSO): at 45.8 µM (top of the series); further: nearly all actives have a fitted effect of over 65% in size
How it was run: as §1

[4] = Quantitative High-Throughput drug screen in 47 multiple myeloma cell lines against the NCATS MIPE library collection: OPM1_PLB cell viability assay (AID 1918989); further: nearly all actives have a fitted effect of over 40% in size
How it was run: as §1

[5] = Quantitative High-Throughput drug screen in 47 multiple myeloma cell lines against the NCATS MIPE library collection: U266_ATCC cell viability assay (AID 1919864); further: nearly all actives have a fitted effect of over 35% in size
How it was run: as §1

[6] = Quantitative High-Throughput drug screen in 47 multiple myeloma cell lines against the NCATS MIPE library collection: XG6_PLB cell viability assay (AID 1919865); settings: XG6 myeloma viability, CellTiter-Glo ATP luminescence, 48 h; viability (% of control): at 45.8 µM (top of the series); further: nearly all actives have a fitted effect of over 40% in size;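 on viability (% of control): 100% = DMSO-only wells and 0% = media-only wells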
How it was run: as §1

[7] = Quantitative High-Throughput drug screen in 47 multiple myeloma cell lines against the NCATS MIPE library collection: VP6_DJ cell viability assay (AID 1919867); settings: ATP luminescence, 48 h; viability (% of DMSO): at 45.8 µM (top of the series); further: nearly all actives have a fitted effect of over 40% in size;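 on viability (% of DMSO): 100% = DMSO-only wells and 0% = wells with media alone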
How it was run: as §1

[8] = Quantitative High-Throughput drug screen in 47 multiple myeloma cell lines against the NCATS MIPE library collection: SKMM1_PLB cell viability assay (AID 1919863); settings: SKMM1 myeloma viability, CellTiter-Glo ATP, 48 h; viability: hits give low values; further: nearly all actives have a fitted effect of over 35% in size
How it was run: as §1

[9] = Quantitative High-Throughput drug screen in 47 multiple myeloma cell lines against the NCATS MIPE library collection: XG1_PLB cell viability assay (AID 1919866); further: nearly all actives have a fitted effect of over 35% in size
How it was run: as §1
Potency means the concentration at half of the fitted maximal effect.

COc1nccc(-c2c(-c3ccc(F)cc3)ncn2C2CCNCC2)n1
inactive: Potency [5]
inconclusive: Potency [1] 26.4 µM [rising, single point] | viability, percent of control [2] 67.7% [cytotoxic] | Potency [3] 37.2 µM [cytotoxic, single point] | Potency [4] 5.9 µM [cytotoxic, partial curve, poor fit] | Potency [6] 1.05 µM [cytotoxic, full curve, poor fit]

COc1ccc2cc(-c3nc(-c4ccc(S(C)=O)cc4)[nH]c3-c3ccncc3)ccc2c1 (stereo unspecified)
inconclusive: Potency [1] 33.2 µM [cytotoxic, single point] | Potency [2] 16.6 µM [cytotoxic, partial curve, poor fit] | Potency [3] 16.6 µM [cytotoxic, partial curve, poor fit] | Potency [5] 0.0132 µM [rising, full curve, poor fit] | Potency [6] 20.9 µM [cytotoxic, partial curve] | Potency [7] 37.2 µM [cytotoxic, single point]

C[C@]12CC[C@H](O)CC1=CCC1C2CC[C@]2(C)C(n3cnc4ccccc43)=CCC12 (stereo partly specified)
active: Potency [6] 14.8 µM
inconclusive: Potency [2] 29.6 µM [cytotoxic, single point] | Potency [3] 23.5 µM [cytotoxic, partial curve, poor fit] | Potency [7] 7.43 µM [cytotoxic, partial curve, poor fit]
inactive: Potency [1] | viability [8] 80.8% | Potency [9]

O=C1Nc2ccc(Cl)cc2C(C#CC2CC2)(C(F)(F)F)O1 (stereo unspecified)
inconclusive: Potency [1] 33.2 µM [cytotoxic, single point] | Potency [2] 33.2 µM [cytotoxic, single point] | Potency [3] 18.7 µM [cytotoxic, partial curve, poor fit] | Potency [8] 18.7 µM [cytotoxic, partial curve, poor fit] | Potency [6] 16.6 µM [cytotoxic, partial curve]

An excerpt from above in order of heavy-atom count, ascending:
O=C1Nc2ccc(Cl)cc2C(C#CC2CC2)(C(F)(F)F)O1 (stereo unspecified)
inconclusive: Potency [1] 33.2 µM [cytotoxic, single point] | Potency [2] 33.2 µM [cytotoxic, single point] | Potency [3] 18.7 µM [cytotoxic, partial curve, poor fit] | Potency [8] 18.7 µM [cytotoxic, partial curve, poor fit] | Potency [6] 16.6 µM [cytotoxic, partial curve]

C[C@]12CC[C@H](O)CC1=CCC1C2CC[C@]2(C)C(n3cnc4ccccc43)=CCC12 (stereo partly specified)
active: Potency [6] 14.8 µM
inconclusive: Potency [2] 29.6 µM [cytotoxic, single point] | Potency [3] 23.5 µM [cytotoxic, partial curve, poor fit] | Potency [7] 7.43 µM [cytotoxic, partial curve, poor fit]
inactive: Potency [1] | viability [8] 80.8% | Potency [9]

COc1ccc2cc(-c3nc(-c4ccc(S(C)=O)cc4)[nH]c3-c3ccncc3)ccc2c1 (stereo unspecified)
inconclusive: Potency [1] 33.2 µM [cytotoxic, single point] | Potency [2] 16.6 µM [cytotoxic, partial curve, poor fit] | Potency [3] 16.6 µM [cytotoxic, partial curve, poor fit] | Potency [5] 0.0132 µM [rising, full curve, poor fit] | Potency [6] 20.9 µM [cytotoxic, partial curve] | Potency [7] 37.2 µM [cytotoxic, single point]

Further results:

CN(CCOc1ccc(NS(C)(=O)=O)cc1)CCc1ccc(NS(C)(=O)=O)cc1
inconclusive: Potency [7] 10.5 µM [cytotoxic, full curve, poor fit]
inactive: Potency [1] | Potency [2] | Potency [3] | viability [8] 109% | Potency [5]

CN1CCC(=C2c3ccccc3CC(=O)c3sccc32)CC1
inconclusive: Potency [2] 10.5 µM [rising, single point] | Potency [3] 7.43 µM [cytotoxic, full curve, poor fit]
inactive: viability [8] 102%
active: Potency [1] 23.5 µM | Potency [7] 9.35 µM

CC(C)Nc1cc(C(F)(F)F)cc2nc(NC(=O)c3cccnc3)nn12
inactive: Potency [1] | Potency [2]
inconclusive: Potency [3] 11.8 µM [cytotoxic, single point] | Potency [8] 0.264 µM [cytotoxic, full curve, poor fit] | Potency [6] 0.0264 µM [cytotoxic, full curve, poor fit] | Potency [7] 0.0042 µM [rising, full curve, poor fit]

CN1C(C(=O)Nc2ccccn2)=C(O)c2ccccc2S1(=O)=O
inactive: Potency [1] | Potency [2] | Potency [5] | Potency [6] | Potency [7]
inconclusive: Potency [3] 37.2 µM [cytotoxic, single point] | Potency [4] 16.6 µM [rising, partial curve, poor fit]

CCC(C)n1ncn(-c2ccc(N3CCN(c4ccc(OC[C@H]5CO[C@](Cn6cncn6)(c6ccc(Cl)cc6Cl)O5)cc4)CC3)cc2)c1=O (stereo partly specified)
inactive: Potency [3] | Potency [5]
inconclusive: Potency [1] 0.0935 µM [cytotoxic, full curve, poor fit] | Potency [2] 3.32 µM [cytotoxic, full curve, poor fit] | Potency [6] 0.935 µM [cytotoxic, full curve, poor fit] | Potency [7] 9.35 µM [cytotoxic, single point]

CCc1nc(N)nc(N)c1-c1ccc(Cl)cc1
inconclusive: Potency [1] 6.62 µM [cytotoxic, full curve] | Potency [2] 11.8 µM [cytotoxic, partial curve] | Potency [3] 16.6 µM [cytotoxic, partial curve, poor fit] | Potency [8] 0.001 µM | Potency [5] 3.32 µM [cytotoxic, full curve, poor fit]
inactive: Potency [6]

COc1cc(Nc2nc3ccccc3nc2NS(=O)(=O)c2ccc(NC(=O)c3ccc(C)c(OC)c3)cc2)cc(OC)c1
inconclusive: Potency [1] 16.6 µM [cytotoxic, partial curve] | Potency [2] 13.2 µM [cytotoxic, partial curve, poor fit] | Potency [3] 20.9 µM [cytotoxic, partial curve, poor fit] | Potency [4] 18.7 µM [cytotoxic, partial curve] | Potency [5] 33.2 µM [cytotoxic, single point]

CN(C)N=Nc1nc[nH]c1C(N)=O
inactive: Potency [2] | viability [8] 140% | Potency [5]
inconclusive: Potency [1] 5.26 µM [cytotoxic, partial curve, poor fit] | Potency [3] 9.35 µM [cytotoxic, partial curve, poor fit] | Potency [7] 7.43 µM [cytotoxic, full curve, poor fit]

CC1CC2C3CCC4=CC(=O)C=C[C@]4(C)[C@@]3(F)[C@@H](O)C[C@]2(C)[C@@]1(O)C(=O)CO (stereo partly specified)
inconclusive: Potency [1] 0.132 µM [cytotoxic, full curve, poor fit] | Potency [2] 20.9 µM [cytotoxic, partial curve] | Potency [3] 20.9 µM [cytotoxic, partial curve, poor fit] | Potency [8] 4.18 µM [cytotoxic, partial curve, poor fit] | Potency [5] 10.5 µM [cytotoxic, partial curve, poor fit]
inactive: Potency [6] | Potency [9]

COc1cc(C(C)=O)ccc1OCCCN1CCC(c2noc3cc(F)ccc23)CC1
inconclusive: Potency [1] 20.9 µM [cytotoxic, partial curve] | Potency [2] 18.7 µM [cytotoxic, partial curve, poor fit] | Potency [3] 7.43 µM [rising, partial curve, poor fit] | Potency [4] 23.5 µM [cytotoxic, partial curve] | Potency [5] 33.2 µM [cytotoxic, single point] | Potency [6] 26.4 µM [cytotoxic, single point] | Potency [9] 33.2 µM [cytotoxic, single point]
active: Potency [7] 16.6 µM

O=c1cc(O)c(Cl)c[nH]1
active: Potency [1] 2.35 µM | Potency [6] 1.87 µM | Potency [7] 0.132 µM
inactive: Potency [2]
inconclusive: Potency [3] 0.0026 µM [rising, full curve, poor fit] | Potency [8] 59 µM [cytotoxic, partial curve, poor fit]

CC(=O)O[C@]1(C(C)=O)CC[C@@H]2[C@@H]3C[C@H](C)C4=CC(=O)CC[C@]4(C)[C@H]3CC[C@@]21C
inconclusive: Potency [1] 0.0264 µM [rising, full curve, poor fit] | Potency [2] 23.5 µM [cytotoxic, partial curve, poor fit] | Potency [4] 33.2 µM [cytotoxic, single point] | Potency [8] 37.2 µM [cytotoxic, single point] | Potency [9] 33.2 µM [cytotoxic, single point]
active: Potency [3] 23.5 µM

Cn1c2cc(S(C)=O)sc2c2cnn(Cc3cccc(N)c3)c(=O)c21 (stereo unspecified)
inactive: Potency [2] | viability [8] 114% | Potency [9]
inconclusive: Potency [1] 0.0132 µM [cytotoxic, full curve, poor fit] | Potency [3] 0.418 µM [cytotoxic, full curve, poor fit] | Potency [7] 2.96 µM [cytotoxic, partial curve, poor fit]

Cc1noc(NS(=O)(=O)c2ccc(N)cc2)c1C
inconclusive: Potency [1] 18.7 µM [cytotoxic, partial curve, poor fit] | Potency [2] 0.0021 µM [rising, full curve, poor fit] | Potency [3] 0.935 µM [cytotoxic, partial curve, poor fit] | Potency [8] 0.0296 µM [rising, full curve, poor fit] | Potency [5] 0.0042 µM [rising, full curve, poor fit] | Potency [7] 23.5 µM [cytotoxic, single point]
inactive: Potency [9]
